Experimental data: US20240252508A1, “Novel glucose uptake inhibitors for use in the treatment of cancer” (NOVELYEAST BV, priority 2021, published 2024)
Some results were stated once for a whole list of compounds, not compound by compound. At least one compound was matched to its structure with a doubt left.

assay: Compound solubilization and handling; assay type: physicochemical; conditions: 100% DMSO stock

| SMILES | Concentration dissolved in 100% DMSO [µM] |
| --- | --- |
| Cc1nc(Sc2nnc3n2CCCCC3)c2c(-c3cccs3)csc2n1 [WBC-A] | ≥ 50000 |
| Cc1nc(NCC(=O)NCc2ccco2)c2c(-c3ccccc3)csc2n1 [WBC-4C] | ≥ 50000 |
| Cc1nc(NCC(=O)Nc2ccccc2Br)c2c(-c3cccs3)csc2n1 [WBC-15C] | ≥ 50000 |
